The source of these data is the supplement of paper PMC10338343.

± gives the standard deviation. This is a selection; strong and weak results do not stand in their true shares. Many of these values have a large error.

The test has as its system MILI (PIWIL2) piRISC loaded with Kctd7 piRNA (26 nt). Description: pre-steady-state target cleavage rate (min^-1); MIWI and MILI are mouse PIWI proteins and EfPiwi is from a freshwater sponge; tags in brackets are library labels; higher = faster piRNA-guided slicing of the target. Particulars: guide: Kctd7 piRNA 5'p-UGUUAAUCUCUCAGAGAAGGUGACAG; auxiliary factor: 500 nM mouse GTSF1. The method in brief: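 Sequencing of uncleaved targets, normalised to depth and to weakly complementary targets, was the readout of this Cleave-'n-Seq assay. A transcribed, DNA-blocked target RNA library (0.1 nM) was mixed with 1 nM active affinity-purified piRISC carrying one synthetic guide, with or without 500 nM GTSF1 partner protein, in HEPES–potassium acetate buffer at 33 °C for 0–8 or 0–960 min. Three trials were pooled, k3 was capped at 0.0001 min^-1, and a burst-and-steady-state fit gave the pre-steady-state cleavage rate.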
As to UAGUGACAGUGCUUCUGUGAGAGAUUAAGA, the “pre-steady-state target cleavage rate” value was determined as 0.00233 ± 0.005.
For the sequence UAGUGACAGUGCUUCUCUGUGUGAUUAACA, the “pre-steady-state target cleavage rate” value amounted to 0.00231 ± 0.0032.
Regarding UAGUGACACACCUACUCUGAGAGAUAUUGA, the “pre-steady-state target cleavage rate” value turned out to be 0.000323 ± 0.018.
The result for UAGUGACAGUGCUUCUCUGUGAGAAUAACA reads 0.00179 ± 0.0036; that for UAGUCUGUCACCUUCUCUGAGAGUUUAACA, 0.238 ± 0.04; that for UAGUGACAGUGCAUCUCUGAGAGAUAAACA, 0.000239 ± 0.0091.
Regarding UAGUGACAGACCUUCUCUGAGAGGUUAACA, the “pre-steady-state target cleavage rate” value was found to be 0.221 ± 0.058.
Then UAGUGACUCACCUUCUGACAGAGAUUAACA, with 0.00353 ± 0.0037; and UAGUGACAGUGGUUCUCCGAGAGAUUAACA, with 0.00186 ± 0.0056; and UAGUGACAGUGGUUCUCUGUCUGAUUAACA, with 0.000112 ± 0.025.
Then UAGUGACAGACCUUCUCUGAGAGUUUUUGA, with 0.00118 ± 0.012.
The result for UAGUGACAGUGGAUCUCUGAGAGGUUAACA reads 0.00057 ± 0.0092; that for UAGUGACAGUGGAAGUCUGAGAGAUGUAACA, 0.000278 ± 0.015; that for UAGUGACACACCUUCUCUCUCAGAUUAACA, 0.00233 ± 0.0047.
UAGUGACAGUGGAAGUCUGAGAGAUUAUACA: the “pre-steady-state target cleavage rate” value was determined as 0.000302 ± 0.013.
UAGUGACACACCUUCUCUGAGUCAUAUUGA: the “pre-steady-state target cleavage rate” value worked out at 0.000291 ± 0.021.
Then UAGUCUGUCACCUUCUCAGAGAGAAUAACA, with 0.0517 ± 0.017; and UAGUGUGUCACCUUCUCUGAGUCAUUAACA, with 0.00291 ± 0.0044.
The result for UAGUGACAGUCCUUCUCUGAGUGAUUAACA reads 0.00123 ± 0.0045.
Then UAGUGACAGUCGAACUCUGAGAGAUUAACA, with 0.000419 ± 0.013; and UAGUGACUCACCUUCUCUGACUCAUUUUGA, with 0.00014 ± 0.028; and UAGUGACAGUGGAAGUCUGAGACAUAAACA, with 0.000215 ± 0.031.
Consider UAGUGACAGUGGAUCUUCUGAGAGAUUAACA, for which the “pre-steady-state target cleavage rate” value amounted to 0.000495 ± 0.0065.
Then UAGUGUGUGUGCUUCUCUGAGAGAUUUUGA, with 0.000656 ± 0.012; and UAGUGACAGUGGAUCUCUGAGAGUAUUAACA, with 0.000184 ± 0.019.
Then UAGUGACAGUGGAACUCUGAGACAUUAACA, with 0.000452 ± 0.02; and “UAGUGACAGUCCUUCUGACUCUCUAAUUGA [g15:g20:cont:t1A]”, with 0.000448 ± 0.015.
Then UAGUGACAGUCCUUCUCUGACUGAUUAACA, with 0.000448 ± 0.0077.
On to UAGUGACACACCUUCAGUGAGAGAUUAACA, for which the “pre-steady-state target cleavage rate” value is 0.0881 ± 0.016.
The result for UAGUGACAGUGGAACUCUGAGAGAUUAAUA reads 0.000654 ± 0.023; that for UAGUGACAGUGGAAGUCUGAGAGGAUUAACA, 0.000167 ± 0.018.
Then UAGUGUGUCACCUUGCUCUGAGAGAUUAACA, with 0.248 ± 0.061.
The result for UAGUGUGUCACCUUCUCUGAGACUAUAUGA reads 0.000973 ± 0.011.
For UAGUGUGUCACCUUGACUGAGAGAUUUUGA, the “pre-steady-state target cleavage rate” value was 0.000453 ± 0.022.
Take UAGUGACAGUGGUUCACUGAGAGAUUUACA: the “pre-steady-state target cleavage rate” value is 0.00052 ± 0.016.
Then UAGUGACAGUGGAAGAGAGACUCAUUAACA, with 0.000415 ± 0.014; and UAGUGACACACCUUCUCUGACUCAUUAACA, with 0.00121 ± 0.0076.
Then UAGUGAGUCACCUUCUCUGAGACUAUAAGA, with 0.000707 ± 0.0094; and UAGUGACACACCUUCUCUGACAGAUAAACA, with 0.00064 ± 0.012.
Then “UAGUGACAGUGGAACUCUGAGAGAUUAACG [g2:g16:cont:t1G]”, with 0.000335 ± 0.019.
For the sequence UAGUGACAGUGGUAGUCUGAGAGAUUAACA, the “pre-steady-state target cleavage rate” value worked out at 0.00082 ± 0.0057.
The result for UAGUGACAGUGGAAGACUGACUCAUUAACA reads 0.000173 ± 0.018; that for UAGUGACAGACCUUCUCUGAGAGAAAUACA, 0.00144 ± 0.007; that for UAGUGACAGUGCUUCUCUGAGAGAAAUACA, 0.000143 ± 0.057.
The result for UAGUGACAGUGGAAGAGUCAGUGAUUAACA reads 0.000117 ± 0.065.
Then UAGUGUGUCACCUUCUCUGAGAGUUAAACA, with 0.146 ± 0.049; and UAGUGACUCACCUUCUCUGGAGAGAUUAACA, with 0.00054 ± 0.014.
Turning to UAGUGACACACCUUCUCUGAGAGUAUAUGA, the “pre-steady-state target cleavage rate” value is 0.00215 ± 0.0055.
The result for UAGUCUGUCACCUUCUCUGAGUCAUUAAGA reads 0.000704 ± 0.0075; that for UAGUGACAGUGGUUCGUCUGAGAGAUUAACA, 0.000455 ± 0.0063.
The result for UAGUGUGUCACCUUCUCUGAGAGAUUACCA reads 0.197 ± 0.037; that for UAGUGACACACCUUCUCUGAGAGUUUUACA, 0.00423 ± 0.0054; that for UAGUGACUCACCUUCAGUGAGAGAUUAACA, 0.0471 ± 0.0078.
On to UAGUGACUCACCUUCUCUGUGAGAUUUUGA, for which the “pre-steady-state target cleavage rate” value worked out at 0.00255 ± 0.0043.
With UAGUGACAGUGGUUCUCUGAGUAGAUUAACA, the “pre-steady-state target cleavage rate” value stood at 0.00101 ± 0.0077.
As for UAGUGACAGACCUUCUCUGAGUGAUUAUCA, the “pre-steady-state target cleavage rate” value was 0.000489 ± 0.027.
The result for UAGUGACAGUCCUUCUCUGAAGAGAUUAACA reads 0.000466 ± 0.0064.
Then UAGUGACACACCUUCUCUGACAGAAUAACA, with 0.000845 ± 0.011.
On to UAGUGACAGACCUUCUCUCUGAGAUUAACA, for which the “pre-steady-state target cleavage rate” value came out at 0.00227 ± 0.0043.
Then UAGUGUGUCACCUUCUGUGUGAGAUUAACA, with 0.0302 ± 0.004; and UAGUGACAGUGGAAGAGAGAGAGAUAUUCA, with 0.00053 ± 0.015; and UAGUGACAGUGGAAGAGUGACACAUUAACA, with 0.000348 ± 0.014.
Then UAGUCUGUCACCUUCUCUGUCUGAUUAACA, with 0.00223 ± 0.0042.
The result for UAGUGACAGUGCUUCUCAGUGAGAUUAACA reads 0.00265 ± 0.0032; that for UAGUGACAGACGUUCUCUGAGAGAUUUUGA, 0.00055 ± 0.018; that for UAGUGACAGUGGAAGUCUGAGAGAUAUAACA, 0.000129 ± 0.022.
For the sequence UAGUGACUCAGCUUGUCUGAGAGAUUAACA, the “pre-steady-state target cleavage rate” value was determined as 0.112 ± 0.0088.
Turning to “UAGUGACAGUGGAACUCUGACUCUAAUUGA [g11:g16:cont:t1A]”, the “pre-steady-state target cleavage rate” value was found to be 0.00476 ± 0.0086.
Then UAGUGACAGUGGAAGUCCUGAGAGAUUAACA, with 0.000109 ± 0.029; and UAGUGAGUCAGGUUCUCUGAGAGAUAUUGA, with 0.000844 ± 0.0098; and UAGUGUGUCACCUUCUCUGAGAGAUUAAA, with 0.234 ± 0.064.
